This passage reports binding results from PMC11014671, “Small molecules that disrupt RAD54-BLM interaction hamper tumor proliferation in colon cancer chemoresistance models” (The Journal of Clinical Investigation, 2024).

For one experiment, the target named is T1, His RAD54 (1-747) (WT) (UniProt Q92698).
T1 sequence: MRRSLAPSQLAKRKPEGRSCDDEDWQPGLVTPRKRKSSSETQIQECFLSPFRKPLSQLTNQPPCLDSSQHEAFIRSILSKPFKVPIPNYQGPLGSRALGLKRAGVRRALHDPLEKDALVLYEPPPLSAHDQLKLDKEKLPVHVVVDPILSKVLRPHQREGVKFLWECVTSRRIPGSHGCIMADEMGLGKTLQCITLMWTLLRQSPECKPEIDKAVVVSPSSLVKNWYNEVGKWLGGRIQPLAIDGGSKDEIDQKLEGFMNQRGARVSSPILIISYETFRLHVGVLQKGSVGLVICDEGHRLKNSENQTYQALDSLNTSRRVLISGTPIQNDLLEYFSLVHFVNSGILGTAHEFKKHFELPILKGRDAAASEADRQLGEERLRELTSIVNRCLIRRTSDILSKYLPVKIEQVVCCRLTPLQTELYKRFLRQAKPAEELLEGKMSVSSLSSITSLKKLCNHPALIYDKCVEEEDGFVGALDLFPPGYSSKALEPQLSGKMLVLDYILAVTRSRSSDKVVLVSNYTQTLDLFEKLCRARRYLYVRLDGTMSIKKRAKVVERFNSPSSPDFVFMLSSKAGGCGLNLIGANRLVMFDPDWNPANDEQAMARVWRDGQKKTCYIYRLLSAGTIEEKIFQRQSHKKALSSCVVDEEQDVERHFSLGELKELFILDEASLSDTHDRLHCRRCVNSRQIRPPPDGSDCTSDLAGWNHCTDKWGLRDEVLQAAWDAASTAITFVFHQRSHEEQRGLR
Nature of the experiment: pull-down; His-RAD54 bound (Ni-NTA resin), incubated with soluble GST BLM wildtype or GST BLM (Δ181-212); bound protein detected by immunoblot; both purified. On the technique in general: A western blot detects proteins with antibodies after separation by electrophoresis.

For experiment [1], the target named is T2, RAD54 (endogenous, human cells) (human (endogenous in HCT116, CCD 841 CoN, HEK293T)) (UniProt Q92698).
T2 sequence: T1 sequence
Kind of experiment: co-IP; lysates of HCT116 IC60 CPT^R cells (beside parental HCT116); immunoprecipitation with anti-RAD54 antibodies, immunoprecipitates probed with anti-BLM antibody.

Experiment [2] concerns the target T2, RAD54 (endogenous, human cells) (human (endogenous in HCT116, CCD 841 CoN, HEK293T)). Nature of the experiment: co-IP; lysates of HCT116 (human) or CT26 (murine) cells immunoprecipitated with anti-RAD54 antibodies, immunoprecipitates probed with anti-BLM antibodies; anti-IgG as control.
For experiment [3] the target is unchanged. Nature of the experiment: proximity ligation; Duolink In Situ Red kit with antibodies against BLM and RAD54 on HCT116 and CCD 841 CoN cells (hypotonic lysis buffer, fixed with ice-cold ethanol); PLA foci per nucleus counted by confocal microscopy.
Experiment [4] deals with BLM helicase (endogenous, human cells) (human (endogenous in HCT116)). Nature of the experiment: proximity ligation; endogenous BLM and RAD54 in CCD 841 CoN (normal colon epithelial) and HCT116 cells.
The target in a further experiment is GFP BLM (aa Δ181–212). Nature of the experiment: co-IP; lysates of HCT116 BLM-/- cells transfected with tagged BLM constructs; immunoprecipitation of the tagged BLM (anti-GFP antibodies), probed for RAD54.
For another experiment, the target named is GFP BLM WT. Described as above.
For experiment [5], the target named is BLM (endogenous, human cells) (human (endogenous in HCT116, CCD 841 CoN, HEK293T)). Kind of experiment: co-IP; lysates of HEK293T cells left untreated or treated with 100nM C3, C7, C17 for 72 hours; immunoprecipitation with anti-BLM antibody, westerns with anti-BLM and anti-RAD54 antibodies.

These are yes or no findings as the source states them, for the method shown. For some assays here: Binding can be weak; no strength is given. For some assays here: Sequences can lack the tags named with a protein. For some assays here: Binding seen in cells or lysates may run through a third protein.

GST BLM (1-1417) (WT) (human): the binding result in the experiment with His RAD54 (1-747) (WT) is given as “binds”.

Turning to BLM (endogenous, human cells), the binding entry in experiment [1], in experiment [2] and in experiment [3] was “binds” in each case.

B1: RAD54 (endogenous, human cells) (protein, UniProt Q92698 1-747)
chain: T1 sequence
With B1, the binding entry was “binds” in experiment [4], “no binding” with GFP BLM (aa Δ181–212), “binds” with GFP BLM WT and “binds” in experiment [5].
